In US20160108390A1:
Results are given in words; binding and its absence hold for the method and conditions named. Some entries that bind do so weakly or less than the wild type. Where a sequence is shown, tags or fusion partners need not be part of it.

Biological target: recombinant human superoxide dismutase 3 (rhSOD3), full length, C-terminal His6 tag (human) (UniProt P08294)
Assay: non-reducing SDS-PAGE of the purified protein (self-association)

binding: binds
B1: recombinant human superoxide dismutase 3 (rhSOD3), full length, C-terminal His6 tag (enzyme)
chain: WTGEDSAEPNSDSAEWIRDMYAKVTEIWQEVMQRRDDDGTLHAACQVQPSATLDAAQPRVTGVVLFRQLAPRAKLDAFFALEGFPTEPNSSSRAIHVHQFGDLSQGCESTGPHYNPLAVPHPQHPGDFGNFAVRDGSLWRYRAGLAASLAGPHSIVGRAVVVHAGEDDLGRGGNQASVENGNAGRRLACCVVGVCGPGLWERQAREHSERKKRRRESECKAAHHHHHH
